Measurements published in article PMC9130861.
These are yes or no findings as the source states them, for the method shown. Binding seen in cells or lysates may run through a third protein. Some results given as binding are weak or reduced against the parent protein; the word gives no strength. Sequences can lack the tags named with a protein.

By UniProt entry, the sequences of proteins in these tests, tags left out.
UniProt Q9L0L0: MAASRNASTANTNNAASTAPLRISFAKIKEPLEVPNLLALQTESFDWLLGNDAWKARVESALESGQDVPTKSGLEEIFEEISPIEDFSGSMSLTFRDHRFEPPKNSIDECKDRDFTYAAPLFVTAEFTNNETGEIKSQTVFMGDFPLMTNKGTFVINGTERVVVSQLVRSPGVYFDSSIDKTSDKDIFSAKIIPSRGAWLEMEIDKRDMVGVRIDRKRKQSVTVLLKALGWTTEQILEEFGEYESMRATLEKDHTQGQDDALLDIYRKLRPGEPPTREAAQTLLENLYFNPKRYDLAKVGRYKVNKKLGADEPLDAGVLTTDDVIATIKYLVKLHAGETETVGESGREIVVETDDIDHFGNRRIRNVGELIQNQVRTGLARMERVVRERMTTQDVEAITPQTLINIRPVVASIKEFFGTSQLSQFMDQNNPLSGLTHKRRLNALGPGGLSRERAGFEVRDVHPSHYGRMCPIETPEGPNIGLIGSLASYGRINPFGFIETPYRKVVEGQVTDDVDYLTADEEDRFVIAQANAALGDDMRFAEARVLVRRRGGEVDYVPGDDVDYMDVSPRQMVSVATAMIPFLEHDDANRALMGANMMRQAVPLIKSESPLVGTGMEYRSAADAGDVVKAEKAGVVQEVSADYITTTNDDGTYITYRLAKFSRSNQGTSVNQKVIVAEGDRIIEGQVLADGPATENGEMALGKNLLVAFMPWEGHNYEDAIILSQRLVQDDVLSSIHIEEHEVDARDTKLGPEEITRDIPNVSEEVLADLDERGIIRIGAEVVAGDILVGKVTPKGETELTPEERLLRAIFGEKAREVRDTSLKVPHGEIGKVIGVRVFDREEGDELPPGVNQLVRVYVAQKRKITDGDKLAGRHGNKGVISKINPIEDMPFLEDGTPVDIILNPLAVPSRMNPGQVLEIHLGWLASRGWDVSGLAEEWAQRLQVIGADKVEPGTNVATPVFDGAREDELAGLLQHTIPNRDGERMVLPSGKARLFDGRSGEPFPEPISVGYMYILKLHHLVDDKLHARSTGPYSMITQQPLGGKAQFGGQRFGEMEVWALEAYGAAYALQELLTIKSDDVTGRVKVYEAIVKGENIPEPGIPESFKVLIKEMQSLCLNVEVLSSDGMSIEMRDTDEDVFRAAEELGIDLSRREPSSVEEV
UniProt Q8CJT1: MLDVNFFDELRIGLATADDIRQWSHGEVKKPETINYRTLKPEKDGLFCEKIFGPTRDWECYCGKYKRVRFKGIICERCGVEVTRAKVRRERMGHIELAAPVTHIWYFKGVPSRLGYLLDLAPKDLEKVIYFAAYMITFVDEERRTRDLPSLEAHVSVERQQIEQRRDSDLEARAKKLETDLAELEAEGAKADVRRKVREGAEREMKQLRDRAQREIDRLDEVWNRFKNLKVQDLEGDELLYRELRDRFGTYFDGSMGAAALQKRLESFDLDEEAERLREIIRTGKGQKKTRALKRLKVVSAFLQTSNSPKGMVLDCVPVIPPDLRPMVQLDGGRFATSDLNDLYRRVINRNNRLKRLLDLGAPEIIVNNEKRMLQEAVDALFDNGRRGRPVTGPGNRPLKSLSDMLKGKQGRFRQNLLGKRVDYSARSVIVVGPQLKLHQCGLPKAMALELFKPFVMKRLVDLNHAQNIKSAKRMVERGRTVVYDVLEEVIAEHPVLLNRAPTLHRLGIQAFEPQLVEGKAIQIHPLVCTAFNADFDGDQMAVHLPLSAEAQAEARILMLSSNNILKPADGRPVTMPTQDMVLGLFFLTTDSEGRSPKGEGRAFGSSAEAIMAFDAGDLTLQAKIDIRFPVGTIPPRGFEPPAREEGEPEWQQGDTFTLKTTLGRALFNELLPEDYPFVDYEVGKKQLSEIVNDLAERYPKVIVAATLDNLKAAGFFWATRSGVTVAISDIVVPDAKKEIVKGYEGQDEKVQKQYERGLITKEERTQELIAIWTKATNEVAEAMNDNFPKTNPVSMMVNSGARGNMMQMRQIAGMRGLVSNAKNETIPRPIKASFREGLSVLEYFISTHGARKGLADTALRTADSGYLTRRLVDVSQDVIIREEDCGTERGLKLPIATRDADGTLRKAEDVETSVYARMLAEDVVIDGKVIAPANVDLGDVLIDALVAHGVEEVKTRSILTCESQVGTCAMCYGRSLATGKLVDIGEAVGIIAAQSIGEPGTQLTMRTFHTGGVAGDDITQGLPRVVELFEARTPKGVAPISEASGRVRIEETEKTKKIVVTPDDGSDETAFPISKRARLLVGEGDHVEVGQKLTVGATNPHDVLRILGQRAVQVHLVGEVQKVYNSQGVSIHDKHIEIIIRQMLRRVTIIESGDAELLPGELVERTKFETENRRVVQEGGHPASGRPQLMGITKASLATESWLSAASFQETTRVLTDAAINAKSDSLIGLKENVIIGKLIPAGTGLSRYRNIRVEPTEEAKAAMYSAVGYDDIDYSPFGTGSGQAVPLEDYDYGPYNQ

T1: HA-tagged HrdB (primary sigma factor of S. coelicolor) (S. coelicolor) (UniProt P18183)
T1 sequence: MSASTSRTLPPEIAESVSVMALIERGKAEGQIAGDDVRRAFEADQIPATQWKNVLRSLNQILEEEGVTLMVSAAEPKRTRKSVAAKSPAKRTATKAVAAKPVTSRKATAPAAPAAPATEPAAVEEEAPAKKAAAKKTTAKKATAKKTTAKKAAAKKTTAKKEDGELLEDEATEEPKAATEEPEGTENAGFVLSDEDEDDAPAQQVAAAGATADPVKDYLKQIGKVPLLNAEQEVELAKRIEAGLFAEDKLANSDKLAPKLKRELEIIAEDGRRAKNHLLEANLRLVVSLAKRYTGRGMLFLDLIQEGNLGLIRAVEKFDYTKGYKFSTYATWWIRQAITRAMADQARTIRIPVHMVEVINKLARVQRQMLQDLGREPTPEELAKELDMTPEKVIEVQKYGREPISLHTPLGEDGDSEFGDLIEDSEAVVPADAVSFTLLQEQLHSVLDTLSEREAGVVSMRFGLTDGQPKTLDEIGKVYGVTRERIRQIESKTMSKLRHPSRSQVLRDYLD

B1: RNA polymerase α subunit (S. coelicolor) (protein, UniProt P60312 1-340)
chain: MLIAQRPSLTEEVVDEFRSRFVIEPLEPGFGYTLGNSLRRTLLSSIPGAAVTSIRIDGVLHEFTTVPGVKEDVTDLILNIKQLVVSSEHDEPVVMYLRKQGPGLVTAADIAPPAGVEVHNPDLVLATLNGKGKLEMELTVERGRGYVSAVQNKQVGQEIGRIPVDSIYSPVLKVTYKVEATRVEQRTDFDKLIVDVETKQAMRPRDAMASAGKTLVELFGLARELNIDAEGIDMGPSPTDAALAADLALPIEELELTVRSYNCLKREGIHSVGELVARSEADLLDIRNFGAKSIDEVKAKLAGMGLALKDSPPGFDPTAAADAFGADDDADAGFVETEQY

Each molecule was assayed against T1, HA-tagged HrdB (primary sigma factor of S. coelicolor) (S. coelicolor) (assay: co-IP; lysates (500 μg protein) of S. coelicolor expressing HA-tagged HrdB, 42 h and 66 h after germination; anti-HA antibody (clone HA-7) on Protein G plus agarose beads, 16-18 h at 4°C; washed 4 times with 20 mM Tris-HCl pH 7.9, 150 mM KCl, 1 mM MgCl2; eluted proteins on SDS-PAGE stained with Coomassie, band identities verified by mass spectrometry).

binding | Molecule
binds | RNA polymerase β subunit (S. coelicolor) (from UniProt Q9L0L0 1-1161)
binds | RNA polymerase β′ subunit (S. coelicolor) (from UniProt Q8CJT1 1-1299)
binds | B1
